Results on five molecules are retold here after article PMC6803390.

Results are given in words; binding and its absence hold for the method and conditions named. Binding seen in cells or lysates may run through a third protein. Here binding means that the protein was enriched with, or labelled near, the bait; the list need not be complete.

The chains are these.
T1: p140Cap adaptor protein (UniProt Q9QWI6)
T1 sequence: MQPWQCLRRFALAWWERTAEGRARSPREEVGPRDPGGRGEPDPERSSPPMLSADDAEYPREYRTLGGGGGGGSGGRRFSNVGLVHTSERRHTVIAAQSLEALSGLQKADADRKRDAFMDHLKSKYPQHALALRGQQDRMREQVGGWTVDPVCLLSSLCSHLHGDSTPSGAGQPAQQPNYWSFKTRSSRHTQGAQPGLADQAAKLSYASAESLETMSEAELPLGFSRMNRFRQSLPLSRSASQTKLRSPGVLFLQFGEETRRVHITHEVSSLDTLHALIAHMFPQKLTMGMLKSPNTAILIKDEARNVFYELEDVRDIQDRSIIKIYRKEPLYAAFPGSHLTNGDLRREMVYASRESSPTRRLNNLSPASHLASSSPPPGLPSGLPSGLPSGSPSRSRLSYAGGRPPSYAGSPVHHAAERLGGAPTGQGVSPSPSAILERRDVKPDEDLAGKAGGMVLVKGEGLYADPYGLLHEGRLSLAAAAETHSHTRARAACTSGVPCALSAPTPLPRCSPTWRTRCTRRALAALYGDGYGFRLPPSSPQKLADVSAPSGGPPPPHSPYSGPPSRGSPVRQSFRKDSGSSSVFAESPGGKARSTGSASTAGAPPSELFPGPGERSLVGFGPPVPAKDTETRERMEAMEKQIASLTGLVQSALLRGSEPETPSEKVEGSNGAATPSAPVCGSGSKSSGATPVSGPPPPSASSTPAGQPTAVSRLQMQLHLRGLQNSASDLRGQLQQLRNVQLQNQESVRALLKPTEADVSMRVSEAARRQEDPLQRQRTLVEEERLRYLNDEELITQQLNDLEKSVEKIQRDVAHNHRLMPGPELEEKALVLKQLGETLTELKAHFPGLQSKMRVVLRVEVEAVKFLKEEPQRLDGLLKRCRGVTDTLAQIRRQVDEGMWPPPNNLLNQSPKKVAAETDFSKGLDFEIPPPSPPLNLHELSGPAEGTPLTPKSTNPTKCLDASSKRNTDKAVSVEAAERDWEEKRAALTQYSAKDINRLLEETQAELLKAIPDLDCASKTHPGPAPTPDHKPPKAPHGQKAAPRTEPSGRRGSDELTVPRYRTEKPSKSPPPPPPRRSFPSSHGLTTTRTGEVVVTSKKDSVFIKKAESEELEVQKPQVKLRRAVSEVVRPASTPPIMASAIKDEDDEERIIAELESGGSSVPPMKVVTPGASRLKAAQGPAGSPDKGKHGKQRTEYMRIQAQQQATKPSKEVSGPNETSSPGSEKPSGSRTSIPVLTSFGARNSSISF

B1: TOM1L2 (protein, UniProt Q5SRX1 1-507)
chain: MEFLLGNPFSTPVGQCLEKATDGSLQSEDWTLNMEICDIINETEEGPKDAIRALKKRLSGNRNYREVMLALTVLETCVKNCGHRFHLLVANRDFIDSVLVKIISPKNNPPTIVQDKVLALIQAWADAFRSSPDLTGVVHIYEELKRRGIEFPMADLDALSPIHTPQRSVPEMDPAATIPRSQTQPRTTAGTYSSPPPASYSTLQAPALSVTGPITANSEQIARLRSELDIVRGNTKVMSEMLTEMVPGQEDSSDLELLQELNRTCRAMQHRIVELISRVSNEEVTEELLHVNDDLNNVFLRYERFERYRSGRSVQNASNGVLSEVTEDNLIDLGPGSPAVVSPMVGSTAPPSSLSSQLAGLDLGTESVSGTLSSLQQCKPQDGFDMFAQTRGNSLAEQRKTVTYEDPQAVGGLASALDNRKQNSEMIPVAQPSVMDDIEVWLRTDLKGDDLEEGVTSEEFDKFLEERAKAAETVPDLPSPPTEAPAPASNTSTRKKPERSDDALFAL
B2: PKP4 (protein, UniProt Q68FH0 1-1190)
chain: MPAPEQGSLVEEGQPQTHQEAVSTGPGMEPETTATTILASVKEQELQFQRLTRELEVERQIVASQLERCRLGAESPSIASTSSTEKSFPWRSTDVPNPGVSKPRVSDTIHPNNYLIRTEPEQGTLYSPEQTSLHESEGSLGNSRSSTQMNSYSDSGYQEAGSFHNSQTVNKADSRQHPFTGSTSNHVVRTSRAEGQTLVQPSVANRAMRRVSSVPSRAQSPSYVTSTGVSPSRGSLRTSLGSGFGSPSVTDSRPLNPSAYSSSTLPAQRAASPYSQRPASPTAVRRVGSVTSRQTSNPNGPVPQYQTTTRVGSPLTLTDAQTRVASPSQGQVGSSSPKRSGMTAVPQHLGPSLQRTVHDMDQFGQQQYDIYERMVPPRPDSLTGLRSSYASQHSQLGQELRSAVSPDLHITPIYEGRTYYSPVYRSPNHGTVELQGSQTALYRTGSVGIGNLQRTSSQRSTLTYQRNNYALNTAATYAEPYRPVQYRVQECSYNRLQHTGPADDGATRSPSIDSIQKDPREFAWRDPELPEVIHMLQHQFPSVQANAAAYLQHLCFGDNKVKMEVYRLGGIKHLVDLLDHRVLEVQKNACGALRNLVFGKSTDENKIAMKNVGGIPALLRLLRKSIDAEVRELVTGVLWNLSSCDAVKMTIIRDALSTLTNTVIVPHSGWNNSSFDDDHKIKFQTSLVLRNTTGCLRNLSSAGEEARKQMRSCEGLVDSLLYVIHTCVNTSDYDSKTVENCVCTLRNLSYRLELEVPQARLLGLNELDDLLGKESPSKDSEPSCWGKKKKKKKRTPQEDQWDGVGPIPGLSKSPKGVEMLWHPSVVKPYLTLLAESSNPATLEGSAGSLQNLSAGNWKFAAYIRAAVRKEKGLPILVELLRMDNDRVVSSVATALRNMALDVRNKELIGKYAMRDLVNRLPGGNGPSILSDETVAAICCALHEVTSKNMENAKALADSGGIEKLVNITKGRGDRSSLKVVKAAAQVLNTLWQYRDLRSIYKKDGWNQNHFITPVSTLERDRFKSHPSLSTTNQQMSPIIQSVGSTSSSPALLGIREPRSEYDRTQPPMQYYNSQGDTTHKGLYPGSSKPSPIYISSYSSPAREQNRRLQHQQLYYQDDSTRKTLDAYRLYLQSPRSYEDPYCDDRVHFPASTDYSTQYGLKSTTNYVDFYSTKRPSYRAEQYPGSPDSWV
B3: MCC (protein, UniProt E9PWI3 1-1003)
chain: MAAASACNSSGGSSDTSSTGEEERLRRLFQTCDGDGDGYISRNDLLMVCRQLSMEESVAEIMNQLGSDENGKISFQDFTRCHTQLVREIRKEEGDLSMKSDMSSTKRLSERITSWPTSSDNSLGALSAARESWEDDSGARDLQSPDLQSQRPLQKLLEYGGSSLPQQAVLHKLLTHAPNFGTSTGGSYLELASTLHLAALASLKGDIVELNKRLQQTERERDLLEKKLAKAQCEQSHLMREHEDVQERTTLRYEERITELHSIIAELNKKIDRLQGTTIREEDEYSELRSELSQSQQEVNEDSRSVDQDQTSVSIPENQSTMVTADMDNCSDLNSELQRVLTGLESVVCGRKKSSCSLSVADVDRHIEQLTTASEHCDLAIKTVEEIEGVLGRDLYPNLAEERSRWEKELAGLREENESLTAMLCSKEEELNRTKATMNAIREERDRLRRRVRELQTRLQSVQATGPSSPGRLTPANRPINPSTGELSTSSSSNDIPIAKIAERVKLSKTRSESSSSDRPVLGSEISSIGVSSSVAEHLAHSLQDCSNIQEIFQTLYSHGSAISESKIREFEVETERLNSRIEHLKSQNDLLTITLEECKSNAERMSMLVGKYESNATALRLALQYSEQCIEAYELLLALAESEQSLILGQFRAAGVGSSPGDQSGDENITQMLKRAHDCRKTAENAAKALLMKLDGSCGGAFAVAGCSVQPWESLSSNSHTSTTSSTASSCDTEFTKEDEQRLKDYIQQLKNDRAAVKLTMLELESIHIDPLSYDVKPRGDSQRLDLENAVLMQELMAMKEEMAELKAQLYLLEKEKKALELKLSTREAQEQAYLVHIEHLKSEVEEQKEQRTRSLSSTSSSGKEKPGKECADAASPALSLAELRTNSDSELATEFANAIRREKKLKARVQELVSALERLTKSSEIRHQQSAEFVNDLKRANSNLVAAYEKAKKKHQNKLKKLESQMMAMVERHETQVRMLKQRIALLEEENSRPHTNETSL
B4: ADD1 (protein, UniProt Q9QYC0 1-735)
chain: MNGDTRAAVVTSPPPTTAPHKERYFDRVDENNPEYLRERNMAPDLRQDFNMMEQKKRVSMILQSPAFCEELESMIQEQFKKGKNPTGLLALQQIADFMTASVPNVYPAAPQGGMAALNMSLGMVTPVNDLRGSDSIAYDKGEKLLRCKLAAFYRLADLFGWSQLIYNHITTRVNSEQEHFLIVPFGLLYSEVTASSLVKVNLQGDIVDRGSTNLGVNQAGFTLHSAVYAARPDAKCIVHIHTPAGAAVSAMKCGLLPISPEALSLGDVAYHDYHGILVDEEEKILIQKNLGPKSKVLILRNHGLVSVGESVEEAFYYIHNLVVACEIQVRTLASAGGPDNLVLLDPGKYKAKSRSPGTPAGEGSGSPPKWQIGEQEFEALMRMLDNLGYRTGYPYRYPALRERSKKYSDVEVPASVTGHSFASDGDSGTCSPLRHSFQKQQREKTRWLHSGRGDDASEEGQNGSSPKSKTKWTKEDGHRTSTSAVPNLFVPLNTNPKEVQEMRNKIREQNLQDIKTAGPQSQVLCGVMMDRSLVQGELVTASKAIIEKEYQPHVIVSTTGPNPFNTLTDRELEEYRREVERKQKGSEENLDETREQKEKSPPDQSAVPNTPPSTPVKLEEDLPQEPTSRDDSDATTFKPTPPDLSPDEPSEALAFPAVEEEAHASPDPTQPPAEADPEPASAPTPGAEEVASPATEEGSPMDPGSDGSPGKSPSKKKKKFRTPSFLKKSKKKSDS
B5: ADD3 (protein, UniProt Q9QYB5 1-706)
chain: MSSDTSPAVVTTPPPPSMPHKERYFDRINESDPEYLRERNMSPDLRQDFNMMEQRKRVTQILQSPAFREDLECLIQEQMKKGHNPSGLLALQQIADYIVTSSFSGFSSPSLSLGMVTPINDLPGADTSSYVKGEKLTRCKLASLYRLADLFGWAHLANTYISVRISKEQDHIIIIPRGLSFSEATASTLVKVNIIGEVVDQGSTDLKIDHTGFSPHAAIYSTRPDVKCVIHIHTLATAAVSSMKCGILPISQESLILGDVAYYDYQGSLDEEEERIELQKVLGPSCKVLVLRNHGMVALGETLEEAFHYIFNVQMACEIQVQAVAGAGGVDNLLVLDLQKYKAFTHGVAMSGGGGVNMASHQKWKVGEIEFEGLMRTLDNLGYRTGYAYRHPLVREKPRHKSDVEIPATVTAFSFEDDSAPLSPLKFMAQRQQREKTRWLNSPNTYMKVNVPEESRNGETSPRTKITWMKAEDSSKVSSGTPIKIEDPNQFVPLNTNPTEVLEKRNKIREQNRYDLKTAGPQSQLLAGIVVDKPPSTMQFDDDDQGPPAPPNPFSHLLEGELEEYTKTIERKQQGLDDAEQGSLSDDAASVSQIQSQTQSPQSVPERLEENHELFSKSFTSMDAPVMIMNGKDEMHDVEDELAQRVSRLTTSTTIENIEITIKSPERTEEVLSPDGSPSKSPSKKKKKFRTPSFLKKNKKKEKVEA

The assay addresses T1, p140Cap adaptor protein. The assay can be described thus: affinity purification with mass spectrometry; p140Cap Mab cross-linked to protein G Dynabeads, 9 mg cell extract of p140-TUBO against NeuT-TUBO (mock) cells, lysis buffer 150 mM NaCl, 50 mM Tris pH 7.4, 1% NP-40, 1 mM MgCl2, 5% glycerol, 2 h at 4°C; label-free nanoLC-MS/MS, three experiments.
With B1, the binding result is “binds”.
To B2 belongs “binds”; to B3, “binds”; to B4, “binds”.
In the case of B5, the binding entry was “binds”.
